The supplement of paper PMC10849652
The list shows a part of the results.

Protein sequences, listed by entry. Tags and fused reporters are not part of them. Lines headed by an entry give the natural chain unless they say otherwise; changes in a name come on top.
UniProt P30085: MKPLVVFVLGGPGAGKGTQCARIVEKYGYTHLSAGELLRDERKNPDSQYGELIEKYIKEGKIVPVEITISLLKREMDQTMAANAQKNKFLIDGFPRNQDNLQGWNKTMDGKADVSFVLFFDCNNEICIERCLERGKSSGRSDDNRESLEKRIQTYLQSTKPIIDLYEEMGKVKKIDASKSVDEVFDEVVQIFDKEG
UniProt Q8N1G2: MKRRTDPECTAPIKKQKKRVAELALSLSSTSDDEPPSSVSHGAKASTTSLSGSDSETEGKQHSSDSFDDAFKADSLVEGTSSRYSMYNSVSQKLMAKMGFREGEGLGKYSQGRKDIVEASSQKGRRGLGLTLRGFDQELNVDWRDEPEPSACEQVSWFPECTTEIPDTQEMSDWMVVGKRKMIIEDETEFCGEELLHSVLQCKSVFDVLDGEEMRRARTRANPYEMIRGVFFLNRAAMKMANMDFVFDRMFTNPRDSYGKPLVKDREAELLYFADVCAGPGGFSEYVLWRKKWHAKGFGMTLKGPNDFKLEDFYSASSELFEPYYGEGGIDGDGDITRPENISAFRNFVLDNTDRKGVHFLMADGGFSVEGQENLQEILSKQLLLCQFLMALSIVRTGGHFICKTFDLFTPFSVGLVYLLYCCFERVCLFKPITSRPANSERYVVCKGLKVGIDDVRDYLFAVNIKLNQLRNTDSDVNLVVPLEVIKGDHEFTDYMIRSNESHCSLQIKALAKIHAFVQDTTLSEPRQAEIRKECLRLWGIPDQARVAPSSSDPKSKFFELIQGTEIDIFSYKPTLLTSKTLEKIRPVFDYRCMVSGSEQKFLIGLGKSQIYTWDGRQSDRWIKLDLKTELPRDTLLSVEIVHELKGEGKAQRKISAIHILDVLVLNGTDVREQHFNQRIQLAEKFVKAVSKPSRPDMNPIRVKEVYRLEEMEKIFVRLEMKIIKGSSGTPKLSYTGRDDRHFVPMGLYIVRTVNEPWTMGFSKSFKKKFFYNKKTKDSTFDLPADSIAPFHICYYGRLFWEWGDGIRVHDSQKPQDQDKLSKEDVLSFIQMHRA
UniProt Q5EBM0: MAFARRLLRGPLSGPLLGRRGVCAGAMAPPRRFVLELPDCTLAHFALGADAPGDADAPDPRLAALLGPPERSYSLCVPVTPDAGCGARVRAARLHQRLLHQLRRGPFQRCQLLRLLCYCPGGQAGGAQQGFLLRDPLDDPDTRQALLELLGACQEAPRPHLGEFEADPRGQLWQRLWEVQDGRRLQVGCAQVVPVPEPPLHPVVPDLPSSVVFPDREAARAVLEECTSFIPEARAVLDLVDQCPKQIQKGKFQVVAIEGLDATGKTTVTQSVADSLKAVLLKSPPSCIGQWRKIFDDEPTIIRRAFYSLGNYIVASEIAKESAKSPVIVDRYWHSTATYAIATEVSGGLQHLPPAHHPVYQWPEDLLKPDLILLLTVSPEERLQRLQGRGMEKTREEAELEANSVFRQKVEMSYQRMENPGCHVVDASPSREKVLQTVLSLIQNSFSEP
UniProt Q13111, whole entry, looked up: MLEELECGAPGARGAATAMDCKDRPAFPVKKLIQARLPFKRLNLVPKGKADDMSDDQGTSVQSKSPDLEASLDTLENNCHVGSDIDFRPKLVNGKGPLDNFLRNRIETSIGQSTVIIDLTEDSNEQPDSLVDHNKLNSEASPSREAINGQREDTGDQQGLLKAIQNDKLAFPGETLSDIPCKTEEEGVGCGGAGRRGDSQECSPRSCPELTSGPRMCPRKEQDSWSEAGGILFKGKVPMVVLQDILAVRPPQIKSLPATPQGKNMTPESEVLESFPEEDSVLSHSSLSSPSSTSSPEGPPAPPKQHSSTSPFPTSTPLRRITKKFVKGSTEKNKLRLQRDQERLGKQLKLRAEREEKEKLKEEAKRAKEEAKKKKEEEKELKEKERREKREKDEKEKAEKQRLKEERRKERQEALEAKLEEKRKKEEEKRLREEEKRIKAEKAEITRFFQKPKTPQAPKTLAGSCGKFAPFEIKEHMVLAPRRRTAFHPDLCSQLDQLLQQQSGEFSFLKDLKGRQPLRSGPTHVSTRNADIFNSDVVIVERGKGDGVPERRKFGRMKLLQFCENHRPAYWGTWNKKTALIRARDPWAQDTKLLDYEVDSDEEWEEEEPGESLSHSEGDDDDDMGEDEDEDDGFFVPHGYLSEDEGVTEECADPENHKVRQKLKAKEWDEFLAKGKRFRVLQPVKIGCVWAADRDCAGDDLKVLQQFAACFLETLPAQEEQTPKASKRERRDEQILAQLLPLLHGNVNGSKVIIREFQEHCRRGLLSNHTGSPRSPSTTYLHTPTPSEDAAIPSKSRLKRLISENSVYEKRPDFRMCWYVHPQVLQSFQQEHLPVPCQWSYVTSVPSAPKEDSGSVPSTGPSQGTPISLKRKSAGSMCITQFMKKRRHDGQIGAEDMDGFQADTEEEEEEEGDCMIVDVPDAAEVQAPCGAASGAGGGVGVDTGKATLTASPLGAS
UniProt Q9UHD1: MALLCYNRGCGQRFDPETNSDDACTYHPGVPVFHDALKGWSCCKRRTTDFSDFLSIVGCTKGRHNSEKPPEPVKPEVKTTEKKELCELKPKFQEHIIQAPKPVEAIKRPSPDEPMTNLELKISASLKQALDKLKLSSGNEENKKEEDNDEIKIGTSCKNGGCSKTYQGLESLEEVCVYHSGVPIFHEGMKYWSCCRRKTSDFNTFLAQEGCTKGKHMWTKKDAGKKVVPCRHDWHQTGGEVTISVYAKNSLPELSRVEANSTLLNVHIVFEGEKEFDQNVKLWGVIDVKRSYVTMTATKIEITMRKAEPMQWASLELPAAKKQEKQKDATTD
UniProt Q9Y3D0: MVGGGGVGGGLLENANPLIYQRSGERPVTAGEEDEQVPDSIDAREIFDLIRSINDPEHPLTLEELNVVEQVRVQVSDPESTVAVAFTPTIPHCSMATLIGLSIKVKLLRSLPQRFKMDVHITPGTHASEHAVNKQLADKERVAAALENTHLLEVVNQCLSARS
UniProt Q9HD42: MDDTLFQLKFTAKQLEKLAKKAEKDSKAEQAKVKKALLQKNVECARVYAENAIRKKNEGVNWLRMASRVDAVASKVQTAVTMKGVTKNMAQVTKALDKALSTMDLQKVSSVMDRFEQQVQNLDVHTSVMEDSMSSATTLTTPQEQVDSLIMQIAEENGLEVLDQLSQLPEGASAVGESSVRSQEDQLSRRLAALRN
UniProt Q9H5X1: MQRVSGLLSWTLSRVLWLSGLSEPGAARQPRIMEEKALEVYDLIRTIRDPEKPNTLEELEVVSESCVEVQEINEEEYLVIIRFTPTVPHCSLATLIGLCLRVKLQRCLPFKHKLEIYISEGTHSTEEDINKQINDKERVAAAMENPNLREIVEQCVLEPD
UniProt Q96DG6: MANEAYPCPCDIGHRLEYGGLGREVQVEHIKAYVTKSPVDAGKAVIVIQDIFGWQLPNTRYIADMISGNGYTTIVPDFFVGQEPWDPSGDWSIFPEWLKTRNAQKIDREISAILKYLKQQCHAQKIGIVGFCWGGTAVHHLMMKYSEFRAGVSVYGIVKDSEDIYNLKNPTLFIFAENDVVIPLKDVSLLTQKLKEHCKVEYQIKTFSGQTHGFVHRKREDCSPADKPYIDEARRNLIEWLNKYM
UniProt Q8IY22: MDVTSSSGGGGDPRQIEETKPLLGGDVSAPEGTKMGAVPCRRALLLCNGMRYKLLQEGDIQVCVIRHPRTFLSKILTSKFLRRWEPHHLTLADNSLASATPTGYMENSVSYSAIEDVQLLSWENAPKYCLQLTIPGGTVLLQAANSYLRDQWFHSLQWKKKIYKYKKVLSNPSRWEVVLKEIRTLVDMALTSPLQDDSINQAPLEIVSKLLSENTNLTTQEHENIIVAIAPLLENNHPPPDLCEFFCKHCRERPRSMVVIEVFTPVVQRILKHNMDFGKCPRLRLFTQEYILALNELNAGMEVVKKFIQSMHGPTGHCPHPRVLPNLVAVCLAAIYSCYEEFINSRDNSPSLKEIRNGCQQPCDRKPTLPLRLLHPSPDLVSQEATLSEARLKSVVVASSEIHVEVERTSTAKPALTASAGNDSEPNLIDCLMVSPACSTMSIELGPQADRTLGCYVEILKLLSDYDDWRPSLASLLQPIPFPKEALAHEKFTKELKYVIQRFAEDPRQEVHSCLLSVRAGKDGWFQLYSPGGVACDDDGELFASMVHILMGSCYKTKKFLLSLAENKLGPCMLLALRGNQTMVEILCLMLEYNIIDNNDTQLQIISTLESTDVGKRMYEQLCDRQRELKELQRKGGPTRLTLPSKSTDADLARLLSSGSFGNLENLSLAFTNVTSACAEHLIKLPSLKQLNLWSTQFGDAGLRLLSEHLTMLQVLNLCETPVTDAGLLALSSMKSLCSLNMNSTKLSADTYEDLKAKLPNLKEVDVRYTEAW
UniProt Q12873: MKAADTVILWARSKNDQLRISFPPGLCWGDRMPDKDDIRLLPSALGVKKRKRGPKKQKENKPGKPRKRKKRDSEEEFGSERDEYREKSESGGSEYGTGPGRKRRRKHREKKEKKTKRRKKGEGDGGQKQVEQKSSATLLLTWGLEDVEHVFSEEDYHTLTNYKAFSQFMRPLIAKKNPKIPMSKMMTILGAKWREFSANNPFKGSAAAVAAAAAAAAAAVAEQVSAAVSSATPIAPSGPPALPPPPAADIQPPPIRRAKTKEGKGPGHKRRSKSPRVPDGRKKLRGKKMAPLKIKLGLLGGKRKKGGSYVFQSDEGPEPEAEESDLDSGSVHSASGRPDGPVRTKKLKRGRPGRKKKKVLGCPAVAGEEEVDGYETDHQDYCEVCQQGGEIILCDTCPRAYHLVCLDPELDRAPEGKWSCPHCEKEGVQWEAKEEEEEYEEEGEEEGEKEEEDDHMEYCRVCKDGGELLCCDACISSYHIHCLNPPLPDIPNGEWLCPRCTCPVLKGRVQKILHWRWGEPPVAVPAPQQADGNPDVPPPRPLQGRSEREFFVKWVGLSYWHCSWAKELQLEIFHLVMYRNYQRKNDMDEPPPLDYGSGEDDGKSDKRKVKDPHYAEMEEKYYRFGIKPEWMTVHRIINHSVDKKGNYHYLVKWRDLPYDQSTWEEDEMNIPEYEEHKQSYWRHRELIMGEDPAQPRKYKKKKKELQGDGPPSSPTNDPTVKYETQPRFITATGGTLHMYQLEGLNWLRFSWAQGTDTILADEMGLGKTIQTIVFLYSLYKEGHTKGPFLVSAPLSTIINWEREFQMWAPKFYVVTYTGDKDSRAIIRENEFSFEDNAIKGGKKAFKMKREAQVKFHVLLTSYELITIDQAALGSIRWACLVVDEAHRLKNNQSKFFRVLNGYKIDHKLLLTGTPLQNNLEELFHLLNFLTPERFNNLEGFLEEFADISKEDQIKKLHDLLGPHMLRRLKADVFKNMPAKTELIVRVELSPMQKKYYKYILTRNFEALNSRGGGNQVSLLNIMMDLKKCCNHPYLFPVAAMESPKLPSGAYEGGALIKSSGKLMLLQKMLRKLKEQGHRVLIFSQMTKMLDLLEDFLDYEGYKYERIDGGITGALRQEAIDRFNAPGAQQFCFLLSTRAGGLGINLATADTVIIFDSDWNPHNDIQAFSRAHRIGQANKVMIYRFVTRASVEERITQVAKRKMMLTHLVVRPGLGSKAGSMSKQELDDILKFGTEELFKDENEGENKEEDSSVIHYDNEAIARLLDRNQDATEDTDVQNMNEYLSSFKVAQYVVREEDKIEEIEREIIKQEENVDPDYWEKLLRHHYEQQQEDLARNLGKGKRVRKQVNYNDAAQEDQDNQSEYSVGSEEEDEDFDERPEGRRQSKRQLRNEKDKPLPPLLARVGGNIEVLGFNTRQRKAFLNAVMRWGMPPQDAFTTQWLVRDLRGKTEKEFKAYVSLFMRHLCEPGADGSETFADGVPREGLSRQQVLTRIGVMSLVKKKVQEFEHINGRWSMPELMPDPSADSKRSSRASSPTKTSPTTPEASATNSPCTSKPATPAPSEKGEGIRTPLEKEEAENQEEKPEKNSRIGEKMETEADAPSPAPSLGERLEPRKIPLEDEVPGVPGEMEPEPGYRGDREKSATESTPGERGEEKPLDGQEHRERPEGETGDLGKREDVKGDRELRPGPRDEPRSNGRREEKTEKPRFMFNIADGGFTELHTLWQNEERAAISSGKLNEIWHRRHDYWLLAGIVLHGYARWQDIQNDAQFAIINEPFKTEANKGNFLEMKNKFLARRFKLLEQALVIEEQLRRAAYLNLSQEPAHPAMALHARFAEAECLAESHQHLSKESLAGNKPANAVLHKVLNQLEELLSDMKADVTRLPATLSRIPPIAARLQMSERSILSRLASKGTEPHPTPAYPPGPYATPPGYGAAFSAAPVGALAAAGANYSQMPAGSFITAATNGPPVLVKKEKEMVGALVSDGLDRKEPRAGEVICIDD
UniProt Q9BY43: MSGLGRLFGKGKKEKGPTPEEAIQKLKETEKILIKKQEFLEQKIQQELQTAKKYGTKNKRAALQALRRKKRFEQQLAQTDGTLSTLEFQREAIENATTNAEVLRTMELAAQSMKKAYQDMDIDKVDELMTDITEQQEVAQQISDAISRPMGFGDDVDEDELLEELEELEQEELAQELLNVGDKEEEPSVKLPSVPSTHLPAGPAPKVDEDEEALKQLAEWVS

Columns and labels:
Assay in all cases: log2 fold change, soluble protein after heating vs DMSO (PISA); higher = thermal stabilisation; K562 lysate, 10 uM; active = over 0.2 and 3.5 SD of the protein, either way, in both replicates (recomputed)
erlotinib = compound: C#Cc1cccc(Nc2ncnc3cc(OCCOC)c(OCCOC)cc23)c1 [erlotinib]
In short: (§1)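 K562 pellets were dounce-homogenised in PBS pH 7.4 with 1 mM MgCl2, and the crude extract at 1 mg/mL protein was treated with 10 μM compound for 30 min. Aliquots were heated for 3 min across 48°C-58°C, pooled, and brought to 0.5% NP-40 at 4°C; soluble protein was the supernatant after 21,000xg for 90 min. Soluble protein was quantified by TMTpro 16plex LC-MS/MS with channel sums equalised, and reported as log2 fold change in thermal stability against DMSO controls, with values from duplicates.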

[1] = compound: C/C(=N\NC(=O)C1=CC(=CC=C1)S(=O)(=O)N2CCOCC2)/C3=C(C=CC(=C3)Cl)O
In short: as §1

[2] = compound: C1=CC(=CC=C1C2=NC3=C(N2)C=C(C=C3)C(=O)N)OC4=CC=C(C=C4)Cl
In short: as §1

[3] = compound: C1=CC2=C(C=CC(=C2)/C=C\3/C(=O)NC(=NCC4=CC=CS4)S3)N=C1
In short: as §1

[4] = compound: C1=CC2=NC=CN=C2C=C1/C=C/3\C(=O)NC(=O)S3
In short: as §1

[5] = compound: C1=CC=C(C=C1)C2=NC(=C(N2)C3=CC=NC=C3)C4=CC(=C(C=C4)Cl)O
In short: as §1

[6] = compound: C1=CC=C2C(=C1)C3=NNC4=CC=CC(=C43)C2=O
In short: as §1

[7] = compound: C1CCN(C1)C(=O)NC2=CC=CC(=C2)NC3=NC=C(C(=N3)NCCC4=CN=CN4)Br
In short: as §1

[8] = compound: C1CN(CCC1(CC2=CC=C(C=C2)Cl)N)C3=NC=NC4=C3C=CN4
In short: as §1

IRAK-1-4 Inhibitor I = compound: C1COCCN1CCN2C3=CC=CC=C3N=C2NC(=O)C4=CC(=CC=C4)[N+](=O)[O-] [IRAK-1-4 Inhibitor I]
In short: as §1

ibrutinib = compound: C=CC(=O)N1CCC[C@@H](n2nc(-c3ccc(Oc4ccccc4)cc3)c3c(N)ncnc32)C1 [ibrutinib]
In short: as §1

[9] = compound: CC(=O)c1cnc2ccc(-c3cc(Cl)c(O)c(Cl)c3)nc2c1N[C@H]1CC[C@H](CN(C)C)CC1
In short: as §1

ralimetinib = compound: CC(C)(C)Cn1c(N)nc2ccc(-c3[nH]c(C(C)(C)C)nc3-c3ccc(F)cc3)nc21 [ralimetinib]
In short: as §1

[10] = compound: CC(C)(O)CC(=O)NCCn1ccc2ncnc(Nc3ccc(Oc4cccc(C(F)(F)F)c4)c(Cl)c3)c21
In short: as §1

[11] = compound: CC(C)C1=C2N=C(C=C(N2N=C1)NCC3=CC=CC=C3)NCCCCCCN
In short: as §1

[12] = compound: CC1=C(C(CC(=O)N1)C2=CC=C(C=C2)C(F)(F)F)C(=O)NC3=C(C=C4C(=C3)C=NN4)F
In short: as §1

[13] = compound: CC1=C(C2=C(C=C1)C(=O)C3=CC=CC=C3N2CCCN)C
In short: as §1

[14] = compound: CC1=C(C=C(C=C1)NC(=O)C2=CC(=CC=C2)C(C)(C)C#N)NC3=CC4=C(C=C3)N=CN(C4=O)C
In short: as §1

[15] = compound: CC1=C(C=C(C=C1)NC(=O)C2=CC(=CC=C2)N(C)C)NC(=O)C3=CC=C(C=C3)O
In short: as §1

[16] = compound: CC1=CC=C(C=C1)SC2=C3C=C(SC3=CN=C2)C(=O)N
In short: as §1

Measured: log2 fold change

CMPK1 (UniProt P30085)
inactive: erlotinib -0.019 | [1] -0.052 | [2] 0.021 | [3] 0.024 | [4] -0.015 | [5] -0.014 | [6] 0.073 | [7] 0.02 | [8] 0.005 | IRAK-1-4 Inhibitor I -0.002 | ibrutinib 0.008 | [9] 0.046 | ralimetinib 0.011 | [10] 0.002 | [11] -0.014 | [12] 0 | [13] 0.013 | [14] -0.005 | [15] 0.007 | [16] 0.007

CMTR1 (UniProt Q8N1G2)
inactive: erlotinib -0.003 | [1] -0.012 | [2] -0.056 | [3] 0.035 | [4] -0.007 | [5] 0.016 | [6] -0.036 | [7] -0.004 | [8] -0.005 | IRAK-1-4 Inhibitor I -0.007 | ibrutinib -0.011 | [9] 0.023 | ralimetinib 0.045 | [10] 0.031 | [11] 0.003 | [12] -0.019 | [13] -0.009 | [14] 0.036 | [15] 0.049 | [16] 0.003

CMPK2 (UniProt Q5EBM0)
inactive: erlotinib -0.019 | [1] 0.07 | [2] 0.006 | [3] -0.035 | [4] -0.016 | [5] 0.004 | [6] -0.038 | [7] -0.03 | [8] 0.031 | IRAK-1-4 Inhibitor I 0.024 | ibrutinib 0.012 | [9] 0.045 | ralimetinib -0.012 | [10] 0.012 | [11] 0.026 | [12] 0.014 | [13] 0.027 | [14] 0.009 | [15] -0.018 | [16] -0.01

CKMT2 (UniProt P17540)
inactive: erlotinib 0.03 | [1] -0.073 | [2] 0 | [3] 0.014 | [4] -0.103 | [5] -0.008 | [6] -0.066 | [7] 0.018 | [8] -0.036 | IRAK-1-4 Inhibitor I 0.023 | ibrutinib 0.054 | [9] -0.03 | ralimetinib 0.087 | [10] -0.035 | [11] 0.033 | [12] -0.039 | [13] -0.027 | [14] -0.029 | [15] 0.043 | [16] 0.036

CHAF1A (UniProt Q13111)
inactive: erlotinib -0.017 | [1] -0.089 | [2] -0.005 | [3] -0.004 | [4] -0.005 | [5] 0.009 | [6] -0.008 | [7] -0.025 | [8] 0.036 | IRAK-1-4 Inhibitor I -0.011 | ibrutinib 0.026 | [9] -0.017 | ralimetinib 0.011 | [10] 0.018 | [11] 0.032 | [12] 0.049 | [13] -0.043 | [14] 0.001 | [15] 0.001 | [16] 0.012

CHORDC1 (UniProt Q9UHD1)
inactive: erlotinib 0.015 | [1] 0.007 | [2] 0.017 | [3] 0.001 | [4] 0.004 | [5] 0.002 | [6] 0.005 | [7] -0.007 | [8] 0.015 | IRAK-1-4 Inhibitor I -0.016 | ibrutinib -0.002 | [9] 0.004 | ralimetinib -0.009 | [10] -0.001 | [11] -0.032 | [12] -0.009 | [13] 0.001 | [14] 0.023 | [15] 0.033 | [16] 0.006

CKMT1A (UniProt P12532)
inactive: erlotinib -0.053 | [1] -0.098 | [2] -0.005 | [3] -0.013 | [4] -0.044 | [5] -0.042 | [6] -0.018 | [7] -0.015 | [8] 0.008 | IRAK-1-4 Inhibitor I 0.022 | ibrutinib 0.032 | [9] 0.019 | ralimetinib -0.011 | [10] -0.028 | [11] -0.032 | [12] -0.014 | [13] -0.058 | [14] 0.018 | [15] 0.032 | [16] -0.037

CIAO2B (UniProt Q9Y3D0)
inactive: erlotinib 0.055 | [1] 0.014 | [2] -0.014 | [3] 0.085 | [4] -0.089 | [5] -0.062 | [6] -0.044 | [7] 0.072 | [8] 0.012 | IRAK-1-4 Inhibitor I -0.004 | ibrutinib 0.014 | [9] -0.026 | ralimetinib -0.012 | [10] -0.023 | [11] 0.033 | [12] -0.024 | [13] -0.001 | [14] 0.048 | [15] 0.031 | [16] -0.033

CHMP1A (UniProt Q9HD42)
inactive: erlotinib -0.021 | [1] -0.014 | [2] 0.028 | [3] 0.002 | [4] -0.011 | [5] -0.023 | [6] -0.006 | [7] 0.002 | [8] -0.02 | IRAK-1-4 Inhibitor I -0.007 | ibrutinib -0.01 | [9] -0.004 | ralimetinib 0.012 | [10] -0.041 | [11] 0.008 | [12] 0.025 | [13] -0.015 | [14] -0.009 | [15] 0.027 | [16] -0.021

CIAO2A (UniProt Q9H5X1)
inactive: erlotinib -0.052 | [1] 0.029 | [2] 0.03 | [3] -0.056 | [4] -0.071 | [5] -0.025 | [6] -0.007 | [7] 0.04 | [8] 0.009 | IRAK-1-4 Inhibitor I 0.032 | ibrutinib 0.005 | [9] 0.044 | ralimetinib 0.053 | [10] -0.034 | [11] 0.056 | [12] 0.032 | [13] -0.06 | [14] -0.026 | [15] -0.067 | [16] -0.02

CMBL (UniProt Q96DG6)
active: [9] 0.22
inactive: erlotinib 0.026 | [1] 0.047 | [2] -0.03 | [3] -0.031 | [4] 0.01 | [5] -0.002 | [6] 0.045 | [7] 0.006 | [8] -0.002 | IRAK-1-4 Inhibitor I 0.025 | ibrutinib -0.059 | ralimetinib 0.018 | [10] -0.009 | [11] -0.056 | [12] -0.082 | [13] 0 | [14] 0.014 | [15] -0.04 | [16] -0.011

Looked up one by one from above, two records:
CIAO2A (UniProt Q9H5X1)
inactive: erlotinib -0.052 | [1] 0.029 | [2] 0.03 | [3] -0.056 | [4] -0.071 | [5] -0.025 | [6] -0.007 | [7] 0.04 | [8] 0.009 | IRAK-1-4 Inhibitor I 0.032 | ibrutinib 0.005 | [9] 0.044 | ralimetinib 0.053 | [10] -0.034 | [11] 0.056 | [12] 0.032 | [13] -0.06 | [14] -0.026 | [15] -0.067 | [16] -0.02

CIAO2B (UniProt Q9Y3D0)
inactive: erlotinib 0.055 | [1] 0.014 | [2] -0.014 | [3] 0.085 | [4] -0.089 | [5] -0.062 | [6] -0.044 | [7] 0.072 | [8] 0.012 | IRAK-1-4 Inhibitor I -0.004 | ibrutinib 0.014 | [9] -0.026 | ralimetinib -0.012 | [10] -0.023 | [11] 0.033 | [12] -0.024 | [13] -0.001 | [14] 0.048 | [15] 0.031 | [16] -0.033

Continued:

CMSS1 (UniProt Q9BQ75)
inactive: erlotinib -0.029 | [1] 0.018 | [2] -0.031 | [3] 0.011 | [4] -0.059 | [5] -0.004 | [6] 0.011 | [7] -0.011 | [8] 0.03 | IRAK-1-4 Inhibitor I -0.035 | ibrutinib -0.012 | [9] -0.016 | ralimetinib -0.002 | [10] -0.011 | [11] 0.047 | [12] -0.015 | [13] 0.027 | [14] -0.059 | [15] 0.019 | [16] -0.004

CMIP (UniProt Q8IY22)
inactive: erlotinib 0.003 | [1] 0.05 | [2] -0.008 | [3] 0.055 | [4] 0.035 | [5] 0.023 | [6] -0.067 | [7] -0.001 | [8] -0.023 | IRAK-1-4 Inhibitor I -0.011 | ibrutinib 0.057 | [9] 0.024 | ralimetinib 0 | [10] 0.004 | [11] -0.011 | [12] 0.001 | [13] -0.021 | [14] 0 | [15] 0.029 | [16] 0.004

CHP1 (UniProt Q99653)
inactive: erlotinib 0.027 | [1] -0.085 | [2] 0.021 | [3] 0.023 | [4] -0.106 | [5] -0.015 | [6] -0.047 | [7] 0.015 | [8] 0.024 | IRAK-1-4 Inhibitor I 0.005 | ibrutinib 0.084 | [9] -0.011 | ralimetinib -0.01 | [10] -0.052 | [11] -0.003 | [12] 0.002 | [13] -0.028 | [14] -0.008 | [15] 0.024 | [16] -0.01

CHD3 isoform 3 (UniProt Q12873)
inactive: erlotinib 0.003 | [1] -0.022 | [2] -0.025 | [3] -0.01 | [4] 0.003 | [5] 0.002 | [6] -0.017 | [7] -0.058 | [8] 0.005 | IRAK-1-4 Inhibitor I -0.032 | ibrutinib -0.003 | [9] 0.021 | ralimetinib -0.01 | [10] -0.021 | [11] -0.001 | [12] 0.019 | [13] -0.018 | [14] 0 | [15] -0.013 | [16] 0.007

CHMP4A isoform 2 (UniProt Q9BY43)
inactive: erlotinib -0.046 | [1] 0.008 | [2] 0.018 | [3] -0.01 | [4] -0.018 | [5] 0.021 | [6] 0.033 | [7] 0.014 | [8] -0.007 | IRAK-1-4 Inhibitor I -0.016 | ibrutinib -0.002 | [9] 0.011 | ralimetinib 0.03 | [10] -0.041 | [11] 0.036 | [12] 0.011 | [13] -0.02 | [14] 0.036 | [15] -0.03 | [16] -0.007
